{"source": "PubChem BioAssay AID2685", "about": "(National Center for Advancing Translational Sciences (NCATS), 2010)", "note": "Hit rate of the full screen: of about 320,000 compounds, about 2,100 (0.66%) were called active. Inconclusive results, whose numbers are uncertain, are shown with a selection of clear calls. The call rests on the fitted dose curve; in most records, active means well fitted inhibition curve with a large enough effect in the signal ratio, with a control signal flat (not every such curve was filed as active); inconclusive means small, poorly fitted or top-dose-only effect, or effect the other way, or a change in a side signal; inactive means flat fitted curve, though single readings scatter; the % refers to the signal ratio. Potencies of inconclusive entries are doubtful fits and often do not repeat. On the % scale 0 is the no-effect control and ±100 the full control effect; potency means the concentration at half of the fitted maximal effect."}
{"experiment": "qHTS Assay for Lipid Storage Modulators in Drosophila S3 Cells", "settings": "BODIPY lipid droplet fluorescence, 18-24 h, cells fed with added oleic acid; lipid storage change, negative = inhibition: at 46.1 µM (top of the series) unless noted", "procedure,_shortened": "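Drosophila S3 cells got compounds at several concentrations plus oleic acid (400 uM solution). Laser-scanning cytometry with 488 nm excitation read lipid droplets at 500-530 nm and cells at 575-640 nm. Percent activity was relative to 20 uM Triacsin C.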"}
{"smiles": "COc1ccccc1NC(=O)c1c(N=Cc2ccccc2O)cnn1C", "Potency": "inconclusive: 0.231 µM [rising, full curve, poor fit]"}
{"smiles": "O=C(CSc1nc2ccccc2c(=O)[nH]1)N1CCCCCC1", "lipid storage change, negative = inhibition": "inconclusive: -25.1%"}
{"smiles": "COc1ccc(NC(=O)c2cc(=O)c3ccccc3o2)cc1Cl", "lipid storage change, negative = inhibition": "inconclusive: 40.4%"}
{"smiles": "Cc1n[nH]c(C)c1CCc1nc2c3ccccc3nc(SCC(N)=O)n2n1", "lipid storage change, negative = inhibition": "inconclusive: -0.279%"}
{"smiles": "O=C(NCC1OCCCN1S(=O)(=O)c1cc(F)ccc1F)C(=O)NC1CCCC1", "note": "(stereo not given)", "lipid storage change, negative = inhibition": "inconclusive: 18.7%"}
{"smiles": "COc1ccc(NC(=O)C2CCCN(S(=O)(=O)c3cccc4cccnc34)C2)c(OC)c1", "note": "(stereo not given)", "lipid storage change, negative = inhibition": "inconclusive: 44.5%"}
{"smiles": "O=C(c1cc2ccccc2oc1=O)N(Cc1ccc2c(c1)OCO2)Cc1ccco1", "Potency": "inconclusive: 7.31 µM [activator, partial curve]"}
{"smiles": "COC(c1ccccc1)c1nnc(CCC(=O)N2CCCCCCC2)o1", "note": "(stereo not given)", "lipid storage change, negative = inhibition": "inactive: 11.6%"}
{"smiles": "O=C(CC(=O)N/N=C/c1c(Cl)cccc1Cl)NCc1cccnc1", "Potency": "inconclusive: 29.1 µM [falling, single point]"}
{"smiles": "O=C(C(c1ccccc1)c1ccccc1)N1CCOCC1", "lipid storage change, negative = inhibition": "inconclusive: -3.11%"}
{"smiles": "Cc1cc(=O)oc2cc(NC(=O)c3cccc(Br)c3)ccc12", "Potency": "inconclusive: 2.06 µM [activator, partial curve]"}
{"smiles": "O=C(C1CCCN(S(=O)(=O)c2ccccc2)C1)N1CCN(c2ccccc2)CC1", "note": "(stereo not given)", "Potency": "inconclusive: 11.6 µM [falling, single point]"}
{"smiles": "CCCCn1nc(NS(=O)(=O)c2cccc3nonc23)c2cc3cccc(C)c3nc21", "lipid storage change, negative = inhibition": "inactive: -12.1%"}
{"smiles": "CCN(C(=O)CSc1ccc(S(=O)(=O)N2CCOCC2)cn1)c1ccccc1", "lipid storage change, negative = inhibition": "inconclusive: -6.22%"}
{"smiles": "Clc1ccc(/C=N\\Nc2ccccc2)cc1", "Potency": "inconclusive: 14.6 µM [activator, partial curve]"}
{"smiles": "O=C(CN1CCN(S(=O)(=O)c2cccc(Cl)c2)CC1)NCC1(N2CCOCC2)CCCCC1", "Potency": "inconclusive: 2.06 µM [falling, partial curve, poor fit]"}
{"smiles": "OCCN1CCN(c2cc(C(F)(F)F)nc3ccccc23)CC1", "Potency": "inconclusive: 6.51 µM [activator, single point]"}
{"smiles": "COc1ccc(CC(=O)Nc2nc(-c3cccc([N+](=O)[O-])c3)cs2)cc1", "lipid storage change, negative = inhibition": "inconclusive: -39.1%"}
{"smiles": "COc1ccc(-n2c(SCC(=O)N(C)c3ccccc3)nc3c([nH]c4ccccc43)c2=O)cc1OC", "lipid storage change, negative = inhibition": "inconclusive: 21.2%"}
{"smiles": "COc1cccc(C(=O)NCc2ccc3c(c2)OCO3)c1OC", "Potency": "inconclusive: 11.6 µM [activator, single point]"}
{"smiles": "COc1cccc(OCCCCSc2ncccn2)c1", "lipid storage change, negative = inhibition": "inconclusive: 33.3%"}
{"smiles": "Cc1cccc(C(=O)Nc2ccnc(-c3ccncc3)n2)c1", "lipid storage change, negative = inhibition": "inconclusive: -6.07%"}
{"smiles": "O=C(COC(=O)C1CC1)Nc1ccc(Cl)cn1", "Potency": "inconclusive: 6.51 µM [activator, full curve, poor fit]"}
{"smiles": "COc1ccc(C(=O)Nc2cccc(-c3nnc(-c4ccco4)o3)c2)cc1", "Potency": "inconclusive: 6.51 µM [activator, partial curve]"}
{"smiles": "CCn1c2ccccc2c2nnc(SCC(=O)Nc3ccc4c(c3)OCO4)nc21", "Potency": "inconclusive: 0.92 µM [activator, partial curve]"}
{"smiles": "O=C(CCCSc1nnc(Nc2ccccc2F)s1)N1CCOCC1", "lipid storage change, negative = inhibition": "inconclusive: 4.94%"}
{"smiles": "O=S(=O)(c1ccccc1)N1N=C(c2ccccc2)CC1c1ccccc1", "note": "(stereo not given)", "lipid storage change, negative = inhibition": "inconclusive: -10.7%"}
{"smiles": "CSCCC(NC(=O)c1ccccc1C)C(=O)O", "note": "(stereo not given)", "lipid storage change, negative = inhibition": "inconclusive: 11.5%"}
{"smiles": "COc1ccccc1C(=O)N/C(N)=N/c1nc2ccccc2o1", "lipid storage change, negative = inhibition": "inconclusive: 1.51%"}
{"smiles": "CCCCC(CC)C(=O)NCCc1ccc(S(N)(=O)=O)cc1", "note": "(stereo not given)", "lipid storage change, negative = inhibition": "inconclusive: 4.3%"}
{"smiles": "COC(=O)C1(C)NC(c2ccc(O)cc2)C2C(=O)N(c3ccc(F)cc3)C(=O)C21", "note": "(stereo not given)", "Potency": "inconclusive: 29.1 µM [activator, single point]"}
{"smiles": "O=C(Cc1cccs1)NNC(=S)NCc1ccc(Cl)cc1", "lipid storage change, negative = inhibition": "inconclusive: -18.1%"}
{"smiles": "Cc1ccccc1OCC(O)CN1CCN(c2ccc(Cl)cc2)CC1", "note": "(stereo not given)", "Potency": "inconclusive: 32.6 µM [cytotoxic, single point]"}
{"smiles": "CN1CCC(NC(=O)Cc2c(F)cccc2Cl)CC1", "lipid storage change, negative = inhibition": "inconclusive: 2.48%"}
{"smiles": "CC(NC(=O)CSc1nnc2n1CCCCC2)c1ccccc1Cl", "note": "(stereo not given)", "lipid storage change, negative = inhibition": "inconclusive: -58.5%"}
{"smiles": "Cc1ccc(NC(=O)C2C3CCCC2C3c2ccccc2)c(C)c1", "note": "(stereo not given)", "lipid storage change, negative = inhibition": "inconclusive: 15.4%"}
{"smiles": "Cc1ccccc1CN(C)c1ccc(S(=O)(=O)N2CCN(C)CC2)cn1", "lipid storage change, negative = inhibition": "inconclusive: 6.2%"}
{"smiles": "COc1ccc(-c2oc3cccnc3c2-c2ccc(OC)nc2)cc1", "Potency": "inconclusive: 1.64 µM [activator, partial curve]"}
{"smiles": "CC1CC(C)(C)CC2(C1)NC(=O)N(CC(=O)Nc1c(F)cccc1F)C2=O", "note": "(stereo not given)", "Potency": "inconclusive: 29.1 µM [activator, single point]"}
{"smiles": "CC1CCc2sc3nc(NCc4ccco4)n4ncnc4c3c2C1", "note": "(stereo not given)", "Potency": "inconclusive: 7.31 µM [rising, partial curve, poor fit]"}
{"smiles": "O=C(NC1CCCCCC1)C1CCN(c2nc3ccccc3o2)CC1", "lipid storage change, negative = inhibition": "inconclusive: 39%"}
{"smiles": "O=C(Nc1cccc([N+](=O)[O-])c1)C1C2/C=C\\CCCCC21", "note": "(stereo not given)", "Potency": "inconclusive: 6.51 µM [falling, single point]"}
{"smiles": "COC(=O)c1cccc(S(=O)(=O)N(Cc2ccco2)Cc2cc3cc(OC)ccc3[nH]c2=O)c1", "lipid storage change, negative = inhibition": "inconclusive: 34.9%"}
{"smiles": "CCOc1ccc(C(=O)NC(=S)Nc2ncccc2C)cc1[N+](=O)[O-]", "Potency": "inconclusive: 0.82 µM [activator, full curve, poor fit]"}
{"smiles": "CCOc1ccc(N(CC(=O)NC2CCCCCC2)S(=O)(=O)c2ccccc2)cc1", "outcome": "inactive [at 46.1 µM]"}
{"smiles": "COc1cc(CN2CCNC(=O)C2CC(=O)NC2CCCC2)cc(OC)c1", "note": "(stereo not given)", "lipid storage change, negative = inhibition": "inconclusive: 9.92%"}
{"smiles": "CSc1ncccc1C(=O)OCc1c(F)cccc1Cl", "Potency": "inconclusive: 29.1 µM [falling, single point]"}
{"smiles": "COCCn1c(SCC(=O)Nc2c(C)n(C)n(-c3ccccc3)c2=O)nnc1-c1ccncc1", "Potency": "inconclusive: 6.51 µM [cytotoxic, single point]"}
{"smiles": "CCN(CC(=O)Nc1c(Cl)cccc1Cl)C(=O)C1CCN(c2ncnc3sc(C)c(C)c23)CC1", "Potency": "inconclusive: 29.1 µM [falling, single point]"}
{"smiles": "COc1cc(/C=C2/SC(=Nc3ccc(O)cc3)NC2=O)cc(OC)c1O", "lipid storage change, negative = inhibition": "inconclusive: 12.2%"}
{"smiles": "COc1ccc2oc(C(=O)Nc3ccccn3)c(C)c2c1", "Potency": "inconclusive: 14.1 µM [falling, single point]"}
{"smiles": "Cc1cc(S(=O)(=O)NCCCn2ccnc2)c(C)cc1Cl", "lipid storage change, negative = inhibition": "inconclusive: 0.698%"}
{"smiles": "CCC1CCCCN1S(=O)(=O)c1ccc(S(=O)(=O)N(Cc2ccccn2)CC2CCCO2)cc1", "note": "(stereo not given)", "lipid storage change, negative = inhibition": "inconclusive: 6.3%"}
{"smiles": "O=C(CCC(=O)c1ccc(Oc2ccccc2)cc1)Nc1ccc(C(=O)O)cc1", "Potency": "inconclusive: 14.6 µM [activator, partial curve]"}
{"smiles": "N#C/C(=C\\c1ccc(OCc2ccc(Cl)cc2)cc1)C(=O)Nc1cccc(C(=O)O)c1", "lipid storage change, negative = inhibition": "inconclusive: 243%"}
{"smiles": "O=C(COC(=O)CCc1ccc(S(=O)(=O)N2CCOCC2)cc1)NC1CCCCCC1", "lipid storage change, negative = inhibition": "inconclusive: -42.1%"}
{"smiles": "CCCCOC(=O)c1ccc(N)cc1", "lipid storage change, negative = inhibition": "inconclusive: 7.21%"}
{"smiles": "O=C(O)c1cccc(NC(=O)C2CC(=O)N(Cc3ccccc3)C2)c1", "note": "(stereo not given)", "Potency": "active: 4.61 µM"}
{"smiles": "O=C(NCc1c(Cl)cccc1Oc1ccccc1)c1ccccc1", "Potency": "inconclusive: 32.6 µM [cytotoxic, partial curve]"}
{"smiles": "CCOC(=O)/C(C#N)=C/c1cc(C)n(-c2ccc(C)cc2)c1C", "Potency": "inconclusive: 0.184 µM [falling, full curve, poor fit]"}
{"smiles": "Cc1cnc(C(=O)NCCc2ccc(C(F)(F)F)cc2)cn1", "Potency": "inconclusive: 5.8 µM [activator, full curve]"}
{"smiles": "S=C(Nc1ccccc1Cl)N1CCC(c2ccccc2)C1", "note": "(stereo not given)", "lipid storage change, negative = inhibition": "inconclusive: -29.4%"}
{"smiles": "Cc1cccc(N2C(=O)CN(Cc3cccs3)C2=S)c1", "lipid storage change, negative = inhibition": "inconclusive: -3.68%"}
{"smiles": "Oc1c(Br)cc(/C=N/n2c(-c3ccccc3)n[nH]c2=S)c(O)c1Br", "Potency": "inconclusive: 18.4 µM [activator, single point]"}
{"smiles": "COC(=O)c1cc(CNC(=O)Cc2ccsc2)ccc1OC", "lipid storage change, negative = inhibition": "inconclusive: 233%"}
{"smiles": "COc1ccc(OCC(=O)N2CCc3ccccc3C2)cc1", "Potency": "inconclusive: 11.6 µM [activator, partial curve, poor fit]"}
{"smiles": "COc1ccc(-c2cc(C)no2)cc1S(=O)(=O)N(C)c1ccc(C)cc1", "outcome": "inactive [at 46.1 µM]"}
{"smiles": "O=C(OCCN1C(=O)c2ccccc2C1=O)Oc1ccccc1", "Potency": "inconclusive: 6.51 µM [activator, single point]"}
{"smiles": "COc1cc(C(=O)NCCOc2ccccc2)cc(OC)c1OC", "lipid storage change, negative = inhibition": "inactive: 1.93%"}
{"smiles": "CC1CC(C)CN(C(=O)c2ccc(NC(=O)c3ccc(=O)[nH]c3)cc2)C1", "note": "(stereo not given)", "lipid storage change, negative = inhibition": "inconclusive: 12.8%"}
{"smiles": "O=C(CN1CCOCC1)N/N=C/c1c(O)ccc2ccccc12", "lipid storage change, negative = inhibition": "inconclusive: -39.8%"}
{"smiles": "CC(C)C[C@H](NC(=O)NCc1ccc(F)cc1)C(=O)O", "lipid storage change, negative = inhibition": "inconclusive: -19.9%"}
{"smiles": "O=C(Cc1ccc(F)cc1)Nc1ccc(S(=O)(=O)N2CCCC2)cc1", "lipid storage change, negative = inhibition": "inconclusive: -31.8%"}
{"smiles": "CCC(=O)NC(=S)Nc1cccc(NC(=O)CC)c1", "Potency": "inconclusive: 32.6 µM [falling, single point]"}
{"smiles": "CC(C)C[C@@H](NC(=O)C1CCC(CNC(=O)[C@H](Cc2ccccc2)NC(=O)OC(C)(C)C)CC1)C(=O)O", "note": "(stereo not given in full)", "lipid storage change, negative = inhibition": "inconclusive: -111%"}
